Source: patent US5466682A, “Acylamino-alkyliden-hydroxy-bisphosphonic acids esters and salts thereof, wherein the acyl group is derived from an acid having antiinflammatory activity” (Istituto Gentili S.p.A., priority 1991, dated 1995)

Tested on: bone calcium loss induced by retinoid
Assay: Bone calcium loss induced by retinoid in thyroparathyroidectomized rat (plasma Ca)
Type: in vivo, rat (male)
Details: thyroparathyroidectomized rats, retinoid s.c. 3 days, 24 hours after last administration
Protocol: Male rats weighing about […] are thyroparathyroidectomyzed under Nembutal anaesthesia. The animals are treated with thyroxine on alternate days during all the test. 7 Days after surgery, blood is withdrawn by means of intracardiac puncture and Ca is determined on plasma. The animals with a Ca plasma content higher than 2 mM are excluded from the test, the others are treated with the compounds under test and with retinoid which is administered subcutaneously for 3 consecutive days. 24 Hours after the last administration, animals are killed and blood is recovered to determine Ca again.
EFFECT OF BR--AB AND BR--AX D[…]
BONE CALCIUM LOSS INDUCED BY RETINOID IN RAT

## NCCCC(O)(P(=O)(O)O)P(=O)(O)O [AHBuBP, 4amino-1-hydroxybutylidene-1,1-diphosphonic acid, reference compound]
Controls 1.11 ± 0.03
  Plasmatic Ca increase after retinoid adm.: 0.29 ± 0.2 mmol/lt
Versus controls
  % inhibition (of plasmatic Ca increase after retinoid): 73.9%
